In experiment [1] the target is T1, Intraflagellar transport protein-88 (IFT88), endogenous (human (endogenous in HEKT293 and HeLa)) (UniProt Q13099).
T1 sequence: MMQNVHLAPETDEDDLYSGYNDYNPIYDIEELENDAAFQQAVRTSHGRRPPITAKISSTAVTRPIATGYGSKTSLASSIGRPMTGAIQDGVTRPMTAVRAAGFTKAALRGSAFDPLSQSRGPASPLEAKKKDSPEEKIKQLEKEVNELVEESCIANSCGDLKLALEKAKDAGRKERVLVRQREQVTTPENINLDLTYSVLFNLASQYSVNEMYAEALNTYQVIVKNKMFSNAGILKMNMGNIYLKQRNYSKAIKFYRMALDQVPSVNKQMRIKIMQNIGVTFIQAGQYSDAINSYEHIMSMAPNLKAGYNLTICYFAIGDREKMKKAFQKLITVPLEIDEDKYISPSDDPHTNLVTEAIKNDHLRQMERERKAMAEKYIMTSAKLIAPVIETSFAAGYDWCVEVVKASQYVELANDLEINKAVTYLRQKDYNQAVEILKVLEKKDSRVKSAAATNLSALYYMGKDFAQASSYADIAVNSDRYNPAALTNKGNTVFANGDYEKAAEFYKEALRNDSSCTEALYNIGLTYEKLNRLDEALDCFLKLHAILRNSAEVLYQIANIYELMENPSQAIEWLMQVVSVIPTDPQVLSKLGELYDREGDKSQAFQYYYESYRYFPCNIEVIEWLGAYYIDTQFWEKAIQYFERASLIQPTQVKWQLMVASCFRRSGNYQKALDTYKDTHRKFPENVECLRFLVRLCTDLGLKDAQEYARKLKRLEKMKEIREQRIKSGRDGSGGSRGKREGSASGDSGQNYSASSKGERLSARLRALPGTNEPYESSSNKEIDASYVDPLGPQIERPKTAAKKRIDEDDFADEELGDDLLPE
As to the kind of experiment: co-IP; reciprocal: endogenous IFT88 precipitated from lysate of serum-starved HEKT293 cells; immunoblot for CENP-F; IgG isotype control. (A western blot detects proteins with antibodies after separation by electrophoresis.)

In experiment [2] the target is CENP-F (centromere protein F), endogenous (human (endogenous in HEKT293 and HeLa)). Kind of experiment: co-IP; lysate of mitotic HEKT293 cells in radio-immunoprecipitation assay buffer, incubated with monoclonal anti-CENP-F (ab90, Abcam, 1:100) for 24 h at 4°C; immunoblot with anti-IFT88 and anti-KIF3B; IgG isotype control.

Results are given in words; binding and its absence hold for the method and conditions named. In cells and extracts the contact can be indirect. Binding calls can cover weak binding; strength is not graded here. Where a sequence is shown, tags or fusion partners need not be part of it.

On to “CENP-F (centromere protein F), endogenous (human (endogenous in HEKT293 and HeLa))”, for which the binding entry in experiment [1] is recorded as “binds”.

B1: KIF3B (protein, UniProt O15066 1-747)
chain: MSKLKSSESVRVVVRCRPMNGKEKAASYDKVVDVDVKLGQVSVKNPKGTAHEMPKTFTFDAVYDWNAKQFELYDETFRPLVDSVLQGFNGTIFAYGQTGTGKTYTMEGIRGDPEKRGVIPNSFDHIFTHISRSQNQQYLVRASYLEIYQEEIRDLLSKDQTKRLELKERPDTGVYVKDLSSFVTKSVKEIEHVMNVGNQNRSVGATNMNEHSSRSHAIFVITIECSEVGLDGENHIRVGKLNLVDLAGSERQAKTGAQGERLKEATKINLSLSALGNVISALVDGKSTHIPYRDSKLTRLLQDSLGGNAKTVMVANVGPASYNVEETLTTLRYANRAKNIKNKPRVNEDPKDALLREFQEEIARLKAQLEKRSIGRRKRREKRREGGGSGGGGEEEEEEGEEGEEEGDDKDDYWREQQEKLEIEKRAIVEDHSLVAEEKMRLLKEKEKKMEDLRREKDAAEMLGAKIKAMESKLLVGGKNIVDHTNEQQKILEQKRQEIAEQKRREREIQQQMESRDEETLELKETYSSLQQEVDIKTKKLKKLFSKLQAVKAEIHDLQEEHIKERQELEQTQNELTRELKLKHLIIENFIPLEEKSKIMNRAFFDEEEDHWKLHPITRLENQQMMKRPVSAVGYKRPLSQHARMSMMIRPEARYRAENIVLLELDMPSRTTRDYEGPAIAPKVQAALDAALQDEDEIQVDASSFESTANKKSKARPKSGRKSGSSSSSSGTPASQLYPQSRGLVPK
For B1, the binding entry in experiment [2] is given as “binds”.

B2: Intraflagellar transport protein-88 (IFT88), endogenous (protein, UniProt Q13099 1-824)
chain: MMQNVHLAPETDEDDLYSGYNDYNPIYDIEELENDAAFQQAVRTSHGRRPPITAKISSTAVTRPIATGYGSKTSLASSIGRPMTGAIQDGVTRPMTAVRAAGFTKAALRGSAFDPLSQSRGPASPLEAKKKDSPEEKIKQLEKEVNELVEESCIANSCGDLKLALEKAKDAGRKERVLVRQREQVTTPENINLDLTYSVLFNLASQYSVNEMYAEALNTYQVIVKNKMFSNAGILKMNMGNIYLKQRNYSKAIKFYRMALDQVPSVNKQMRIKIMQNIGVTFIQAGQYSDAINSYEHIMSMAPNLKAGYNLTICYFAIGDREKMKKAFQKLITVPLEIDEDKYISPSDDPHTNLVTEAIKNDHLRQMERERKAMAEKYIMTSAKLIAPVIETSFAAGYDWCVEVVKASQYVELANDLEINKAVTYLRQKDYNQAVEILKVLEKKDSRVKSAAATNLSALYYMGKDFAQASSYADIAVNSDRYNPAALTNKGNTVFANGDYEKAAEFYKEALRNDSSCTEALYNIGLTYEKLNRLDEALDCFLKLHAILRNSAEVLYQIANIYELMENPSQAIEWLMQVVSVIPTDPQVLSKLGELYDREGDKSQAFQYYYESYRYFPCNIEVIEWLGAYYIDTQFWEKAIQYFERASLIQPTQVKWQLMVASCFRRSGNYQKALDTYKDTHRKFPENVECLRFLVRLCTDLGLKDAQEYARKLKRLEKMKEIREQRIKSGRDGSGGSRGKREGSASGDSGQNYSASSKGERLSARLRALPGTNEPYESSSNKEIDASYVDPLGPQIERPKTAAKKRIDEDDFADEELGDDLLPE
Turning to B2, in experiment [2], the binding entry is “binds”.

The values above are taken from paper PMC4345935.
